11 compounds from article PMC2854724, “In Vitro Screening of Environmental Chemicals for Targeted Testing Prioritization: The ToxCast Project” (Environmental Health Perspectives, 2009) can be followed below.

The subject of data set [1] is direct targets (130 direct assay measurements for human targets). The data set is described as follows: Number of hits in direct (cell-free HTS) assays for human targets. The format is biochemical. Particulars: 30-μM cutoff for activity; out of 130 direct human assay measurements.
Data set [2] concerns 33 minimal pathways. The data set is described as follows: Pathway perturbation scores against the minimal set of 33 pathways. The arrangement: species or system human. Particulars: 30-μM cutoff; out of 33 minimal pathways; activity in at least five pathway-mapped assays needed.

Regarding `O=S(=O)(O)C(F)(F)C(F)(F)C(F)(F)C(F)(F)C(F)(F)C(F)(F)C(F)(F)C(F)(F)F` [PFOS, perfluorooctane sulfonic acid], the “Number of direct hits” value in data set [1] is reported as “at least 20”.
As to `c1cc[c]([Sn+]([c]2ccccc2)[c]2ccccc2)cc1` [fentin], in data set [1], the “Number of direct hits” value is “at least 20”.
Consider `O=[N+]([O-])c1cc(C(F)(F)F)c(Cl)c([N+](=O)[O-])c1Nc1ncc(C(F)(F)F)cc1Cl` [fluazinam], for which the “Number of minimal pathways hit” value in data set [2] is on record as “at least 20”.
With `C=CCOC(Cn1ccnc1)c1ccc(Cl)cc1Cl` (centres unmarked) [imazalil], in data set [1], the “Number of direct hits” value was “at least 20”.
In the case of `S=C([S-])NCCNC(=S)[S-].[Mn+2]` [maneb], in data set [1], the “Number of direct hits” value is reported as “at least 20”. Moreover, the “Number of minimal pathways hit” value in data set [2] was “at least 20”.
Turning to `CN(C)[C@@H]1C(O)=C(C(N)=O)C(=O)[C@@]2(O)C(O)=C3C(=O)c4c(O)cccc4[C@@](C)(O)[C@H]3[C@H](O)[C@@H]12` [oxytetracycline dihydrate], the “Number of direct hits” value in data set [1] is given as “at least 20”.
Regarding `COC(=O)N(OC)c1ccccc1COc1ccn(-c2ccc(Cl)cc2)n1` [pyraclostrobin], the “Number of minimal pathways hit” value in data set [2] is recorded as “at least 20”.
As to emamectin benzoate, the “Number of direct hits” value in data set [1] was “at least 20”.
As to mancozeb, in data set [1], the “Number of direct hits” value is “at least 20”. In addition, the “Number of minimal pathways hit” value in data set [2] was “at least 20”.
metiram-zinc: in data set [1], the “Number of direct hits” value is reported as “at least 20”. Besides, the “Number of minimal pathways hit” value in data set [2] is recorded as “at least 20”.
With milbemectin, the “Number of direct hits” value in data set [1] is on record as “at least 20”.
